Literature values as cited in EP4729056A1, “SELF-EMULSIFIABLE DOCETAXEL COMPOSITION FOR INJECTION AND PREPARATION METHOD THEREFOR” (BEIJING DELIINJE PHARM. TECHNOLOGY CO., LTD., priority 2023, dated 2024).
Where two headings read alike, the source gives them in different places.

solubility (in water): hardly soluble in water
Structure (SMILES): CC(=O)O[C@@]12CO[C@@H]1C[C@H](O)[C@@]1(C)C(=O)[C@H](O)C3=C(C)[C@@H](OC(=O)[C@H](O)[C@@H](NC(=O)OC(C)(C)C)c4ccccc4)C[C@@](O)([C@@H](OC(=O)c4ccccc4)[C@H]21)C3(C)C [docetaxel, Docetaxel]
solubility (in organic solvents such as methanol and chloromethane): soluble in organic solvents such as methanol and chloromethane
